Assay results from PubChem BioAssay AID2685 (National Center for Advancing Translational Sciences (NCATS), 2010).
This is one part of the list. Further columns of the screen follow, without active or inactive calls. The list favours compounds with an active or inconclusive main result. Potencies come from curve fits of mixed quality, noted in brackets.

Experiment: qHTS Assay for Lipid Storage Modulators in Drosophila S3 Cells;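 as to cell number change: cells counted by Cell Tracker Red CMTPX staining in the red channel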
Settings: BODIPY lipid droplet fluorescence, 18-24 h; for cell number change: measured here: cell count max response, cells fed with added oleic acid
Summary of the method: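 Laser-scanning cytometry quantifies lipid droplet accumulation (500–530 nm total intensity; droplet/cell object ratio) in oleic acid-fed (400 uM added) Drosophila S3 cells treated with a concentration series. 20 uM Triacsin C defined 100% inhibition.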

[1] = measured here: cell number channel AC50, cells fed with added oleic acid
[2] = measured here: lipid fluorescence (Fed channel) AC50, cells fed with added oleic acid

Row | SMILES | cell number change [%] | AC50 [1] | AC50 [2]
1 | CC(CNc1ccccc1O)C(=O)O (centres undefined) | 55.4 | 18.4 µM [rising, single point] | 
2 | Cc1ccc(SCCNC(=O)c2ccc([N+](=O)[O-])c(C)c2)cc1 | -4.2 |  | 29.1 µM [falling, single point]
3 | Nc1c(N(Cc2ccco2)C(=O)COc2ccccc2F)c(=O)[nH]c(=O)n1Cc1ccccc1 | -21.8 | 1.64 µM [falling, full curve, poor fit] | 1.16 µM [falling, full curve]
4 | Cc1cccc(C(=O)NCc2nnc(SCC(=O)Nc3nnc(C)s3)n2C)c1 | 32.9 | 2.91 µM [rising, full curve, poor fit] | 35.5 µM [falling, single point]
5 | Cc1occc1C(=O)NNC(=S)Nc1cccc([N+](=O)[O-])c1 | -18.6 |  | 3.66 µM [falling, partial curve, poor fit]
6 | COCCn1nnnc1C(c1cc2c(C)cc(C)cc2[nH]c1=O)N1CCCCCC1 (centres undefined) | 14.5 |  | 0.13 µM [rising, full curve, poor fit]
7 | Cc1ccc(NC(=O)c2ccc(Cl)c(S(=O)(=O)NCC3CCCO3)c2)c(O)c1 (centres undefined) | 5.52 |  | 
8 | CCOC(=O)c1c(C)[nH]c(C)c1C(=O)COC(=O)CNC(=O)C1CCCCC1 |  | 1.64 µM [rising, partial curve] | 0.731 µM [rising, partial curve, poor fit]
9 | COc1ccc(C2CC(c3ccc([N+](=O)[O-])cc3)=NN2C(=O)c2ccccc2)cc1OC (centres undefined) | 0.184 | 3.26 µM [falling, single point] | 2.59 µM [falling, full curve]
10 | COCC(=O)Nc1ccccc1C(=O)Nc1ccc(OC)cc1 | 0.0707 |  | 
11 | CC(Nc1c([N+](=O)[O-])c(=O)oc2ccccc12)c1ccccc1 (centres undefined) | 46.5 | 7.31 µM [rising, partial curve] | 10.3 µM [rising, partial curve]
12 | Cc1ccc(CNC(=O)CCS(=O)(=O)c2cccc3nsnc23)cc1 | 6.22 |  | 
13 | CCOC(=O)c1cnc2ccccc2c1Nc1ccc(C(=O)O)cc1 | -31.6 | 7.31 µM [falling, partial curve] | 4.11 µM [falling, partial curve]
14 | Cc1ccc(S(=O)(=O)N2CCN(C(=O)n3ccnc3)CC2)cc1 | -11.2 |  | 
15 | Nc1cc(-c2ccccc2)ccc1O |  |  | 5.17 µM [falling, single point]
16 | Cc1nnc2ccc(-c3cccc(NC(=O)c4ccc(Br)o4)c3)nn12 | -16.3 |  | 1.3 µM [falling, full curve, poor fit]
17 | COc1ccccc1C(=O)NCC(=O)Nc1ccccc1 | 14.5 |  | 16.4 µM [rising, partial curve]
18 | Cc1noc(C)c1COC(=O)COc1ccc(C#N)cc1 | -12.8 |  | 
19 | COc1ccc(Cl)cc1NC(=O)NCc1ccco1 | 14 |  | 0.00411 µM [rising, full curve, poor fit]
20 | CCNC(=S)Nc1cc(Cl)ccc1Oc1ccccc1 | 44.3 | 11.6 µM [rising, partial curve] | 3.26 µM [rising, partial curve, poor fit]

A few values from above:
AC50 [2] with CCNC(=S)Nc1cc(Cl)ccc1Oc1ccccc1 reads 3.26 µM [rising, partial curve, poor fit]
AC50 [2] with CCOC(=O)c1c(C)[nH]c(C)c1C(=O)COC(=O)CNC(=O)C1CCCCC1 reads 0.731 µM [rising, partial curve, poor fit]

Further structures follow.

Row | SMILES | cell number change [%] | AC50 [1] | AC50 [2]
21 | CCCCCC(O)c1cccc(OCc2ccc3ccccc3n2)c1 (centres undefined) | -1.46 |  | 1.03 µM [rising, full curve]
22 | N[C@@H](Cc1ccccc1)C(=O)N1CCC(C(=O)N[C@@H](CCC(=O)O)C(=O)O)CC1 | 32.6 | 3.66 µM [rising, full curve] | 29.1 µM [rising, partial curve, poor fit]
23 | Oc1cccc(C=NCc2ccccc2)c1O | -16.2 |  | 3.26 µM [falling, partial curve]
24 | CCNS(=O)(=O)c1ccc(C(=O)OCC(=O)N2CCCc3ccccc32)cc1 | -18.7 |  | 0.731 µM [rising, partial curve, poor fit]
25 | CCOc1ccc(C(=O)CCC(=O)NCC(=O)Nc2c(C)cccc2C)cc1 | 18.6 |  | 0.82 µM [rising, single point]
26 | Cc1ccc(COC(=O)CN2C(=O)NC3(CCCC3)C2=O)cc1 | 5.91 |  | 11.6 µM [rising, partial curve]
27 | O=C1COc2ccc(C(=O)COC(=O)CNC(=O)c3ccco3)cc2N1 | -49 | 0.92 µM [falling, full curve] | 0.0058 µM [falling, full curve]
28 | C[C@H](NC(=O)c1ccc2c(c1)OCO2)c1nnc2ccccn12 | 12.6 |  | 
29 | CCCn1c(N)c(N(CCOC)C(=O)c2cc(-c3ccco3)nc3ccccc23)c(=O)[nH]c1=O | -4.4 |  | 0.164 µM [rising, full curve, poor fit]
30 | CC(=O)N1C(=O)NC(c2ccccc2)=C([N+](=O)[O-])C1c1ccccc1 (centres undefined) | -40.7 | 14.6 µM [falling, partial curve, poor fit] | 
31 | C=CCn1nnc2sc3c(c2c1=O)CCC(C)C3 (centres undefined) | -7.82 |  | 0.326 µM [rising, full curve, poor fit]
32 | COc1cc2ccccc2cc1C(=O)Nc1ccccc1N1CCN(S(C)(=O)=O)CC1 | 6.18 | 0.411 µM [rising, full curve, poor fit] | 1.64 µM [rising, partial curve]
33 | O=C(Nc1ccc(SC(F)F)cc1)c1cccc2nc3ccccc3nc12 | -21.5 |  | 
34 | Cc1ccccc1NC(=O)c1ccc(OCC(=O)Nc2ccccc2F)cc1 | 5.51 | 6.51 µM [falling, single point] | 6.51 µM [falling, single point]
35 | COc1ccc(Nc2ccc(C(F)(F)F)cc2[N+](=O)[O-])cn1 | 11.7 |  | 
36 | CN(CC(=O)Nc1ccccc1Cl)CC(=O)Nc1ccccc1[N+](=O)[O-] | 50.7 | 0.82 µM [rising, full curve, poor fit] | 18.4 µM [rising, partial curve]
37 | O=S(=O)(c1ccc(Cl)cc1)N1CCN(Cc2ccncc2)CC1 | -10.9 |  | 6.51 µM [falling, single point]
38 | O=c1c([N+](=O)[O-])c(N2CCOCC2)c2ccccc2n1Cc1ccccc1 | -2.68 |  | 3.26 µM [falling, single point]
39 | CNC(=O)N1c2ccccc2NC(=O)CC1C (centres undefined) | -9.06 |  | 0.651 µM [falling, single point]
40 | N#CCCN1CCNCC1 | 3.06 |  | 25.9 µM [falling, partial curve]

Nothing new here: 3 of the compounds above.
Row | SMILES | cell number change [%] | AC50 [1] | AC50 [2]
26 | Cc1ccc(COC(=O)CN2C(=O)NC3(CCCC3)C2=O)cc1 | 5.91 |  | 11.6 µM [rising, partial curve]
27 | O=C1COc2ccc(C(=O)COC(=O)CNC(=O)c3ccco3)cc2N1 | -49 | 0.92 µM [falling, full curve] | 0.0058 µM [falling, full curve]
28 | C[C@H](NC(=O)c1ccc2c(c1)OCO2)c1nnc2ccccn12 | 12.6 |  | 

Additional compounds.

Row | SMILES | cell number change [%] | AC50 [1] | AC50 [2]
41 | O=C(CN1CCN(c2ccc(F)cc2)CC1)NCC1CCCO1 (centres undefined) | 0.408 |  | 25.9 µM [falling, single point]
42 | O=C(CCCc1ccccc1)Nc1ccccc1C(F)(F)F | -1.82 |  | 0.13 µM [rising, full curve, poor fit]
43 | O=C(O)c1cccc(N2C(=O)c3cccnc3C2=O)c1 | -3.86 |  | 
44 | O=C(CC1C(=O)NCCN1C(=O)Nc1ccccc1)Nc1cccc(C(F)(F)F)c1 (centres undefined) | -29.6 |  | 
45 | CCN(c1ccc(NC(=O)CCc2nc3sc4c(c3c(=O)[nH]2)CCCC4)cc1)C(C)C | -12 | 0.366 µM [falling, partial curve, poor fit] | 
46 | COc1ccccc1-n1cnc2cc(NCc3ccccc3O)ccc21 | 27.1 | 2.91 µM [rising, partial curve] | 4.11 µM [rising, full curve]
47 | CCOc1cc(C(=S)N2CCOCC2)ccc1OS(=O)(=O)c1ccccc1[N+](=O)[O-] | -21.4 |  | 
48 | CN(C)CC1CCCCC1OC(=O)/C=C/c1ccc(Cl)cc1Cl (centres undefined) | 10.8 |  | 
49 | c1ccc2c3c([nH]c2c1)C(C1CCCCC1)N(Cc1ncc[nH]1)CC3 (centres undefined) | -19.2 |  | 5.17 µM [falling, partial curve]
50 | COC(=O)Cc1ccc(OC(=O)CCS(=O)(=O)c2ccc(C)cc2)cc1 | -40.4 | 2.06 µM [falling, full curve] | 29.1 µM [falling, single point]
51 | COc1ccc(OC)c(CCNC(=O)CCc2cn(C)c3ccccc23)c1 |  |  | 6.51 µM [rising, single point]
52 | COc1ccc(Cn2c(=O)oc3ccccc32)cc1F | 30.3 | 29.1 µM [rising, single point] | 
53 | O=C(CCc1ccccn1)N1CCCC(N2CCN(c3cccc(C(F)(F)F)c3)CC2)C1 (centres undefined) | -15.8 |  | 29.1 µM [rising, single point]
54 | Cc1ccc(-n2c(-c3nn(C)cc3Cl)n[nH]c2=S)cc1 | -9.37 |  | 2.31 µM [rising, partial curve, poor fit]
55 | CC(=O)c1ccc(NC(=O)CCc2nnc3ccc(N4CCCC4)nn23)cc1 | 0.85 |  | 29.1 µM [rising, single point]
56 | CC(CCc1ccccc1)NS(=O)(=O)c1ccccc1F (centres undefined) | 2.08 |  | 7.31 µM [falling, partial curve]
57 | COC(CN(C)C(=O)c1ccc(CS(=O)(=O)c2ccccc2C)o1)OC | 14.4 |  | 29.1 µM [falling, single point]
58 | Cc1cc(C)c(NC(=O)CSc2nc3ccccc3c(=O)n2CCCN2CCOCC2)c(C)c1 | 3.03 |  | 20.6 µM [rising, partial curve]
59 | COc1ccc(/C=c2\s/c(=C/C(=O)c3ccc(C)cc3)[nH]c2=O)c(OC)c1 | 12.4 |  | 16.4 µM [falling, single point]
60 | COc1cc(C(=O)Nc2ccc(S(=O)(=O)Nc3onc(C)c3C)cc2)cc(OC)c1OC | -36.1 | 29.1 µM [falling, single point] | 
